Laboratory results reported in patent US4499087A, “7-Phenyl-7-phenoxymethyl-hexahydro-1,4-oxazepines and their use” (BASF Aktiengesellschaft, priority 1982, dated 1985).

Test system: norepinephrine uptake
Assay: Inhibition of norepinephrine uptake in rat brain synaptosomes (hippocampus, 3H norepinephrine)
Assay type: biochemical
Conditions: ratio of the two IC50 values of Table 1
Method: The action mechanism of a group of therapeutically much used antidepressants must be regarded as being the inhibition of the neuronal uptake of transmitter substances (norepinephrine and/or serotonin). These properties were utilized in biological test models for characterizing potential antidepressants (inhibition of neurotransmitter uptake in rat brain synaptosomes):
Hippocampus and cortex from rat brain were prepared, and were homogenized in 0.32M sucrose solution. By means of differential centrifuging, synaptosomes were obtained, and these were suspended in buffer solution. The synaptosomes are able actively to take up added neurotransmitter substances (eg. norepinephrine or serotonine) from the surrounding medium. It is possible to antagonize this process by uptake inhibitors, as a function of concentration. Various concentrations of the test substances were added to the synaptosomes, and the mixtures were then incubated with ^3 H norepinephrine (hippocampus) or ^3 H serotonin (cortex) at 37° C. The substrate concentration was about 10 nM. The uptake was terminated by diluting the mixture with ice-cooled buffer solution, after which the synaptosomes were separated off by centrifuging and the ^3 H activity in the sediment was measured. A blank value was determined by incubation at 0° C.
From the inhibitory values determined for various inhibitor concentrations compared with the control, the mean inhibitory concentration (IC50) was calculated by linear regression following logit-log transformation.

Row | Compound | Quotient IC50 serotonin / IC50 Norepinephrine
1 | Cl.c1ccc(OCC2(c3ccccc3)CCNCCO2)cc1 (centres unmarked) [Example 1, 7-phenyl-7-phenoxymethyl-hexahydro-1,4-oxazepine hydrochloride] | 12.7
2 | Cl.Clc1ccccc1OCC1(c2ccccc2)CCNCCO1 (centres unmarked) [Example 2, 7-phenyl-7-(2-chlorophenoxymethyl)-hexahydro-1,4-oxazepine hydrochloride] | 164.0
3 | COc1ccccc1OCC1(c2ccccc2)CCNCCO1.Cl (centres unmarked) [Example 3, 7-phenyl-7-(2-methoxyphenoxymethyl)-hexahydro-1,4-oxazepine hydrochloride] | 32.0
4 | Clc1ccc(OCC2(c3ccccc3)CCNCCO2)cc1 (centres unmarked) [Example 4, 7-phenyl-7-(4-chlorophenoxymethyl)-hexahydro-1,4-oxazepine] | 0.53
5 | COc1ccc(OCC2(c3ccccc3)CCNCCO2)cc1.Cl (centres unmarked) [Example 5, 7-phenyl-7-(4-methoxyphenoxymethyl)-hexahydro-1,4-oxazepine hydrochloride] | 1.2
6 | CN1CCOC(COc2ccccc2Cl)(c2ccccc2)CC1 (centres unmarked) [Example 7] | 3.1
7 | CN(C)CCCN1c2ccccc2CCc2ccccc21 [Imipramine, reference compound] | 9.3

Same assay, conditions: relative to imipramine

Row | Compound | times more effective in inhibiting norepinephrine uptake (compared with imipramine) [times]
8 | Cl.Clc1ccccc1OCC1(c2ccccc2)CCNCCO1 (centres unmarked) [Example 2, 7-phenyl-7-(2-chlorophenoxymethyl)-hexahydro-1,4-oxazepine hydrochloride] | 5
